# Laboratory results from PubChem BioAssay AID651807 (Broad Institute, 2012).
# Values joined by “and” are separate entries in the source; they are usually repeats but may differ in a detail not shown here. Equal entries are not always repeated. The shares of active, inactive and inconclusive entries below differ from those in the screen. Active and inactive are the calls of the source.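 The calls were made as follows: active = fitted curve rises past 40% activation at or below the top valid concentration, in every replicate test; inconclusive = replicate tests give mixed outcomes; inactive = all replicate tests inactive, or signal moves in the opposite direction.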
# Assay: ARE-bla reporter activation in HepG2 – cell-based, beta-lactamase, dry powder, set 4, Keap1-Nrf2 interaction inhibitor project, dose response (AID 651807)
# Settings: ARE-bla HepG2, beta-lactamase FRET ratio 460/530; at 68 µM (top of the series) unless noted
row,SMILES,activation
1,O=C(O)[C@H]1CCCC[C@H]1C(=O)N1CCc2ccccc2[C@H]1CNS(=O)(=O)c1ccccc1,inconclusive: 30.4%
2,O=C1c2ccccc2C(=O)N1CC1c2ccccc2CCN1C(=O)Cc1ccccc1 (stereo not given),inactive: 14.7% [at 16 µM]
3,O=C(O)c1ccccc1C(=O)NC[C@@H]1c2ccccc2CCN1C(=O)[C@@H]1CCCC[C@@H]1C(=O)O,inactive: 23.5%
4,NC(=O)[C@H]1CCCC[C@H]1C(=O)N1CCc2ccccc2[C@H]1CN1C(=O)c2ccccc2C1=O,inconclusive: 25.8%
5,Cc1cc(C)c(S(=O)(=O)Nc2ncnc3ccccc23)c(C)c1,inconclusive: 52.4%
6,O=C(O)C1CCCCC1C(=O)N1CCc2ccccc2C1CN1Cc2ccccc2C1=O (stereo not given),inconclusive: 72%
7,O=C(NC[C@@H]1c2ccccc2CCN1C(=O)[C@@H]1CCCC[C@@H]1C(=O)O)c1ccc(CCl)cc1,inconclusive: 43.1%
8,COc1ccccc1CCNC(=O)[C@@H]1c2ccccc2CCN1C(=O)C1CCCCC1C(=O)O (stereo not given in full),inconclusive: 43.7%
9,Cc1ccc(S(=O)(=O)NC2=CC(=N[C@@H](C)C(=O)OC(C)(C)C)C(=O)c3ccccc32)c(C)c1,inconclusive: 5.56%
10,COC(=O)C(C(=O)OC)c1cc(NS(=O)(=O)c2c(C)cc(C)cc2C)c2ccccc2c1O,inconclusive: -37.2%
11,O=C(NCCCN1CCOCC1)c1ccccc1C(=O)NC[C@@H]1c2ccccc2CCN1C(=O)C1CCCCC1C(=O)O (stereo not given in full),inconclusive: 30.6%
12,CCOC(=O)C(C(=O)OCC)c1cc(CNS(=O)(=O)c2ccc(C)cc2C)c2ccccc2n1,inconclusive: -20.6%
13,O=C(O)[C@H]1CCCC[C@H]1C(=O)N1CCC2=C(CCCC2)C1CN1C(=O)c2ccccc2C1=O (stereo not given in full),inconclusive: 43% and inconclusive: 45.6%
14,O=C1c2ccccc2C(=O)N1CC1=NCCc2ccccc21,inactive: 9.14%
15,Cc1ccc(S(=O)(=O)NNc2nc(NCC(N)=O)nc3ccccc23)cc1,inconclusive: 17.5%
16,O=C(Oc1cc(CN2C(=O)c3ccccc3C2=O)c2ccccc2[n+]1[O-])c1cccc(Cl)c1,inconclusive: 88.6%
17,O=C(O)C1CCCCC1C(=O)N1CCc2ccccc2[C@H]1C(=O)NCCc1ccccc1 (stereo not given in full),inactive: 2.65%
18,O=C(Cc1ccccc1)NC[C@@H]1c2ccccc2CCN1C(=O)[C@@H]1CCCC[C@@H]1C(=O)O,inactive: 6.95%
19,O=C(O)[C@H]1C2C=CC(C2)[C@H]1C(=O)N1CCc2ccccc2C1CN1C(=O)c2ccccc2C1=O (stereo not given in full),inconclusive: 60.4%
20,CC(=O)Nc1cc(NS(=O)(=O)c2c(C)cc(C)cc2C)c2ccccc2c1O,inconclusive: 17.4%
21,O=C(O)[C@@H]1CCCN1C(=O)N1CCc2ccccc2[C@H]1CN1C(=O)c2ccccc2C1=O,inactive: 27%
22,O=C(NC[C@@H]1c2ccccc2CCN1C(=O)[C@@H]1CCCC[C@@H]1C(=O)O)OCC1c2ccccc2-c2ccccc21,inactive: -31.2%
23,O=C(O)[C@H]1CCCC[C@H]1C(=O)NC(CN1C(=O)c2ccccc2C1=O)c1ccccc1 (stereo not given in full),inactive: 25.2%
24,O=C(O)[C@H]1CCCC[C@H]1C(=O)N1CCc2ccccc2C1 (racemic),inconclusive: 3.3%
25,O=C(O)C1CCCCC1C(=O)N1CCc2ccccc2C1CN1C(=O)Cc2ccccc2C1=O (stereo not given),inconclusive: 39.8%

# Part of the list above in order of number of heavy atoms, smallest number first:
row,SMILES,activation
5,Cc1cc(C)c(S(=O)(=O)Nc2ncnc3ccccc23)c(C)c1,inconclusive: 52.4%
18,O=C(Cc1ccccc1)NC[C@@H]1c2ccccc2CCN1C(=O)[C@@H]1CCCC[C@@H]1C(=O)O,inactive: 6.95%
11,O=C(NCCCN1CCOCC1)c1ccccc1C(=O)NC[C@@H]1c2ccccc2CCN1C(=O)C1CCCCC1C(=O)O (stereo not given in full),inconclusive: 30.6%
